Reference: US20130203662A1, “Mini-Hepcidin Peptides and Methods of Using Thereof” (priority 2008, published 2013)
For at least one compound, name, drawing or mass did not settle the structure.

Target: T1, ferroportin fused to green fluorescent protein (ECR293/Fpn-GFP cells) (Mus musculus, UniProt Q9JHI9)
T1 sequence (Q9JHI9 1-570): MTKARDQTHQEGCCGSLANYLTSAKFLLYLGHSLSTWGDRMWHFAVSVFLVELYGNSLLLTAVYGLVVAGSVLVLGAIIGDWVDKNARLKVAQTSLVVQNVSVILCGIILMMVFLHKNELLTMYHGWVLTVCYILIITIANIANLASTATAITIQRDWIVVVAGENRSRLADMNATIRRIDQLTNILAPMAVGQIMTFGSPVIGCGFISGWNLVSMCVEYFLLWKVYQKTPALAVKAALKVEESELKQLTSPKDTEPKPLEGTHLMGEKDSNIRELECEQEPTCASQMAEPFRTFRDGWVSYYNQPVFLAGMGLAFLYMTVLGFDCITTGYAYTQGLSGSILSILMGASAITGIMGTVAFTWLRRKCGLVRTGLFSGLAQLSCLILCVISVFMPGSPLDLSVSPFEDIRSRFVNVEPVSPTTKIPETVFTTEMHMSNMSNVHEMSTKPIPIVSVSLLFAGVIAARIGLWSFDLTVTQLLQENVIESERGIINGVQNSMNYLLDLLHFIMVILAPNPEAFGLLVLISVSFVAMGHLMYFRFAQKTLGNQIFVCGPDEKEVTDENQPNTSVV
Test: Flow cytometry of ferroportin-GFP internalization and degradation in ECR293/Fpn-GFP cells
Type: cell-based
Conditions: concentration eliciting 50% of maximal loss of fluorescence generated by reference Hep25; 24 hours; read-out: EC50 (the source's name)
Method: In vitro activity may be measured by the dose-dependent loss of fluorescence of cells engineered to display ferroportin fused to green fluorescent protein as in Nemeth et al. (2006) Blood 107:328-33. […]
FLOW CYTOMETRY. The activity of peptides of the present invention was measured by flow cytometry as previously described. See Nemeth et al. (2006) Blood 107:328-333, which is herein incorporated by reference. ECR293/Fpn-GFP, a cell line stably transfected with a ponasterone-inducible ferroportin construct tagged at the C-terminus with green fluorescent protein was used. See Nemeth et al. (2004) Science 306:2090-2093, which is herein incorporated by reference. Briefly, the cells were plated on poly-D-lysine coated plates in the presence of 20 μM FAC, with or without 10 μM ponasterone. After 24 hours, ponasterone was washed off, and cells were treated with peptides for 24 hours. Cells were then trypsinized and resuspended at 1×10^6 cells/ml, and the intensity of green fluorescence was analyzed by flow cytometry. […] Cells not induced with ponasterone to express Fpn-GFP were used to establish a gate to exclude background fluorescence. Cells induced with ponasterone, but not treated with any peptides, were used as the positive control. Each peptide was tested over the range of concentrations (0, 0.01, 0.03, 0.1, 0.3, 1, 3 and 10 μM). […]

Compound: CC[C@@H](C)[C@@H](NC(=O)[C@@H](Cc1ccccc1)NC(=O)CCOCCOCCOCCOCCOCCOCCOCCOCCOCCOCCOCCOCCNC(=O)CC[C@@H](C)[C@H]1CC[C@H]2[C@@H]3[C@H](O)C[C@@H]4C[C@H](O)CC[C@]4(C)[C@H]3CC[C@]12C)C(=O)N[C@H](CS)C(=O)N[C@@H](C(=O)N1CCC[C@@H]1C(=O)N[C@H](Cc1ccccc1)C(=O)N[C@H](Cc1c[nH]cn1)C(=O)N[C@@H](C(=O)N[C@H](CC(=O)O)C(N)=O)[C@H](C)O)[C@H](C)CC [Pr23]
- DC50: 100 nM
